From US20260217819A1 (HANSOH BIO, published 2026) come the findings set out here.

Protein sequences, listed by entry. Tags and fused reporters are not part of them. Residues count along the entry.
UniProt Q9R100, residues 26-786: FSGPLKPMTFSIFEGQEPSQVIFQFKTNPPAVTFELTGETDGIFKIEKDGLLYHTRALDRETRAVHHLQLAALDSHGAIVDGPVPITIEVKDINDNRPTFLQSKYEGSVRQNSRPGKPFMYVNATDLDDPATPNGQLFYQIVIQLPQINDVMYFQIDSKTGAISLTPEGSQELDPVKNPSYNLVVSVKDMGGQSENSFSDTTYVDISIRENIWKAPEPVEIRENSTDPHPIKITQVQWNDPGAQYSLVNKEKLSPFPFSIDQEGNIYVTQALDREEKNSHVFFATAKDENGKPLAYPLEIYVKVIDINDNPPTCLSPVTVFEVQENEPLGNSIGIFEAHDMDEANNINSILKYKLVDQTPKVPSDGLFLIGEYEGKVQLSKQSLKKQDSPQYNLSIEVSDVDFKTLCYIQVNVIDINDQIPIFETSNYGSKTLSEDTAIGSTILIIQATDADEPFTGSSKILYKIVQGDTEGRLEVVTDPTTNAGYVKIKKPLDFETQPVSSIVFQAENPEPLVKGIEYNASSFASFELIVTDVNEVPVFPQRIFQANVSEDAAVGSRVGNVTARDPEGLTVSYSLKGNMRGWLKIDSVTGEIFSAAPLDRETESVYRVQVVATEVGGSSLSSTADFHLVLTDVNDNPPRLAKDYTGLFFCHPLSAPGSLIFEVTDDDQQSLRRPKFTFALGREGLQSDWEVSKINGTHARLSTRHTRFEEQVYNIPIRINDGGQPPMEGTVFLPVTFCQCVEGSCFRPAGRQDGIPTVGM
UniProt P55281, residues 22-786: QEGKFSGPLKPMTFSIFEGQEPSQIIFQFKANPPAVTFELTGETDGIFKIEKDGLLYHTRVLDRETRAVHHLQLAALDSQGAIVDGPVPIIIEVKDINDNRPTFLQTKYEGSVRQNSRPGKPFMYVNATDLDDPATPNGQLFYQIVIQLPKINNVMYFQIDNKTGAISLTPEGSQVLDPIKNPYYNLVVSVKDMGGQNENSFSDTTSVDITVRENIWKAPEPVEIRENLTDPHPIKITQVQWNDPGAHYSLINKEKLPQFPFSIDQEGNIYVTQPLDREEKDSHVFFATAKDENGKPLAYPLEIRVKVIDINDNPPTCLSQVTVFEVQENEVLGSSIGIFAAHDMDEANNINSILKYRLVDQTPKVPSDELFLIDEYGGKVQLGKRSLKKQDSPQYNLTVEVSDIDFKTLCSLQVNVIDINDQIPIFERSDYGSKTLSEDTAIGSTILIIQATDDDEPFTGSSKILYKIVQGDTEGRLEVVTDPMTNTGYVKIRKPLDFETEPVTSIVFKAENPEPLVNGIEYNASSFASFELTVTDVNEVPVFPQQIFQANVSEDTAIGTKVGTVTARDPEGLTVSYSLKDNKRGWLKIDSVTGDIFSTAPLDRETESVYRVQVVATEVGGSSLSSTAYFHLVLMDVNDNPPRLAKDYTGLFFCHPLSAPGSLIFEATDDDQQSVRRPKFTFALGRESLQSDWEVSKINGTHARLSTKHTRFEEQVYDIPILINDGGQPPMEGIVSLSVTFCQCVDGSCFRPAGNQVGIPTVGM

These are yes or no findings as the source states them, for the method shown.

Test [1] deals with mouse CDH17 (mouse) (UniProt Q9R100). The test can be described thus: Octet (BLI), antibody captured on anti-hIgG Fc (AHC) sensor, antigen 200 nM in solution. Background: BLI is a label-free optical method that tracks binding on a fibre tip over time.
Test [2] concerns the target rat CDH17 (rat) (UniProt P55281). The test can be described thus: Octet (BLI), antibody captured on anti-hIgG Fc (AHC) sensor, antigen 200 nM in solution [Continued].

B1: anti-CDH17 recombinant antibody 14B12 (human IgG1) (antibody, V domains shown)
VH: QVQLQESGPGLVKPSETLSLTCTVSGGSINTYYRSWIRQPPGKGLEWIGYIYYSGNTNYNPSLKSRVTISADTSKNQFSLNLISVTAADTAMYYCARAQYGEEAFDIWGQGTLVTVSS
VL: DIQMTQSPSSLSASVGDRVTITCRASQSITTYLNWYQQKPGKAPQLLIFAASRLQTGVPSRFSGSGSGTDFTLTISSLLPGDFATYYCQQSYNTPPTFGGGTKVEIKR
For the molecule B1, the binding entry in test [1] is “no binding (tested: 200 nM)”.

B2: anti-CDH17 recombinant antibody 10E11 (human IgG1) (antibody, V domains shown)
VH: EVQLVQSGTEVKKPGESLKISCKDSGYRFSSYWIGWVRQMPGKGLEWMGIIYPGDSDTRYSPSFQGQVTISADKSISTAYLQWRSLKASDTAMYYCARRGWVNYFDYWGQGTLVTVSS
VL: DIQMTQSPSSVSASVGDRVTITCRASQGISNWLGWYQQKPGKAPKLLIYAASSLQSGVPSRFSGSGSGTDFTLTISSLQPEDFATYYCQQANSFPLTFGGGTKVEIKR
For B2, the binding result in test [1] and in test [2] was “no binding (tested: 200 nM)” in each case.
